Measurements taken from the supplement of paper PMC12819154, “High-throughput peptide-centric local stability assay extends protein–ligand identification to membrane proteins, tissues and bacteria” (Nature Structural & Molecular Biology, 2025).
This is one part of the list. Most values lie at the level of the controls, where differences are scatter.

Sequences of proteins named here, by UniProt entry; tags and fusion partners are left off. A change or cut given only in a name is not applied to a line headed by its entry.
UniProt P76550: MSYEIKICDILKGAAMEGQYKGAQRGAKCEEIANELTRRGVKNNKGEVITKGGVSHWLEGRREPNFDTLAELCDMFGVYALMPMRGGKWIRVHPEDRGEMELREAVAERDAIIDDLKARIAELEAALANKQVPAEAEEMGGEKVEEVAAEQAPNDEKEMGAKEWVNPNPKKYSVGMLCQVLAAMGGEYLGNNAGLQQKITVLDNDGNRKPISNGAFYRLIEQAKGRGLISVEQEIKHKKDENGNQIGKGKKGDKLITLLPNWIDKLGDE
UniProt P76085: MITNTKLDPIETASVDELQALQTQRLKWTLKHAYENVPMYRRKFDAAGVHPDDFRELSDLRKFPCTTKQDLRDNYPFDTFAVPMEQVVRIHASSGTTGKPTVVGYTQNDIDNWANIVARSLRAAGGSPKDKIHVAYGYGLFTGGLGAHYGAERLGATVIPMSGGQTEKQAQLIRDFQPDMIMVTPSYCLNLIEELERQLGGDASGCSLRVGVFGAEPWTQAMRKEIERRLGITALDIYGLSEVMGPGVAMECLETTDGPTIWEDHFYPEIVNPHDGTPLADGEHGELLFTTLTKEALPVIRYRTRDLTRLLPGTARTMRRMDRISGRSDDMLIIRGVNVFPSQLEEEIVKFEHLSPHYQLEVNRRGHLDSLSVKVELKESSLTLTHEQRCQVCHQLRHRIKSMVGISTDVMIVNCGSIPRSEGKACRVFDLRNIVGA
UniProt P77445: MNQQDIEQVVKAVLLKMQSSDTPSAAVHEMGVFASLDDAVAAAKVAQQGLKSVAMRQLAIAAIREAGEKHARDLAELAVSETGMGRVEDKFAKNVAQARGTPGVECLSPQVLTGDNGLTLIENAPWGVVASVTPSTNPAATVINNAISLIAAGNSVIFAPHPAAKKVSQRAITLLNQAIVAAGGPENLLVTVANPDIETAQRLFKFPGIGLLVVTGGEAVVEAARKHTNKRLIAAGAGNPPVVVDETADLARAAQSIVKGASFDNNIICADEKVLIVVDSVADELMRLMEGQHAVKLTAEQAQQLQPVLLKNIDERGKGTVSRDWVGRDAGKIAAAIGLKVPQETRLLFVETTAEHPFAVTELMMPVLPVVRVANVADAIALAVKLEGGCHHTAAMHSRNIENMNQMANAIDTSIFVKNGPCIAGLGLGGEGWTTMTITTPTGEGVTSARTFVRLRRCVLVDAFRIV
UniProt P75974: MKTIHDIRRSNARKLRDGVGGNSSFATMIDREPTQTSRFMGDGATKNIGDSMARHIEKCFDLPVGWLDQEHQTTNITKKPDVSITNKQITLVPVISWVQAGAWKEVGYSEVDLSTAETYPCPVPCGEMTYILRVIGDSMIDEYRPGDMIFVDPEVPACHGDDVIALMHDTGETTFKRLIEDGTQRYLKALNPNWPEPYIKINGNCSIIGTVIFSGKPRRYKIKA
UniProt P76536: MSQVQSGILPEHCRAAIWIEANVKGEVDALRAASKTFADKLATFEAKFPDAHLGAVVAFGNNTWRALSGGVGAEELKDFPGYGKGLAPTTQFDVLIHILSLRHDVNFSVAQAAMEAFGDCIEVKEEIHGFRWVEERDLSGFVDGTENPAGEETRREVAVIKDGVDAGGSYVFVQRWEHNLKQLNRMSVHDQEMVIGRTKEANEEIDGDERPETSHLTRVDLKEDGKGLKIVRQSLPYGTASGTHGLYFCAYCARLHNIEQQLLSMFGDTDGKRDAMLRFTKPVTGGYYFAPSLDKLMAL
UniProt P77279: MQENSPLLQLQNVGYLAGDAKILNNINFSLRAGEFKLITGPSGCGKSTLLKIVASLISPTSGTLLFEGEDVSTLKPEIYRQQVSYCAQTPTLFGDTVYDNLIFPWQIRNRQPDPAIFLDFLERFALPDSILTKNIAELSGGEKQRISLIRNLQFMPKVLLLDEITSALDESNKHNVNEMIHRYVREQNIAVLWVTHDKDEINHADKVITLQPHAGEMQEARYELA
UniProt P77626: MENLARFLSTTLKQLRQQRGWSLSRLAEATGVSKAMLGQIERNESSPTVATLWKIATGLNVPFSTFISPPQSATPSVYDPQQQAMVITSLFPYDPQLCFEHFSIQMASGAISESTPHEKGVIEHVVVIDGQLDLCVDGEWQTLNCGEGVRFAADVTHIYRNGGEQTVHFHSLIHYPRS
UniProt P77295: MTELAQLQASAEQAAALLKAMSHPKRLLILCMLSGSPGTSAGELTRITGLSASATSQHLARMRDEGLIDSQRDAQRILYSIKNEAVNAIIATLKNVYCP
UniProt P77489: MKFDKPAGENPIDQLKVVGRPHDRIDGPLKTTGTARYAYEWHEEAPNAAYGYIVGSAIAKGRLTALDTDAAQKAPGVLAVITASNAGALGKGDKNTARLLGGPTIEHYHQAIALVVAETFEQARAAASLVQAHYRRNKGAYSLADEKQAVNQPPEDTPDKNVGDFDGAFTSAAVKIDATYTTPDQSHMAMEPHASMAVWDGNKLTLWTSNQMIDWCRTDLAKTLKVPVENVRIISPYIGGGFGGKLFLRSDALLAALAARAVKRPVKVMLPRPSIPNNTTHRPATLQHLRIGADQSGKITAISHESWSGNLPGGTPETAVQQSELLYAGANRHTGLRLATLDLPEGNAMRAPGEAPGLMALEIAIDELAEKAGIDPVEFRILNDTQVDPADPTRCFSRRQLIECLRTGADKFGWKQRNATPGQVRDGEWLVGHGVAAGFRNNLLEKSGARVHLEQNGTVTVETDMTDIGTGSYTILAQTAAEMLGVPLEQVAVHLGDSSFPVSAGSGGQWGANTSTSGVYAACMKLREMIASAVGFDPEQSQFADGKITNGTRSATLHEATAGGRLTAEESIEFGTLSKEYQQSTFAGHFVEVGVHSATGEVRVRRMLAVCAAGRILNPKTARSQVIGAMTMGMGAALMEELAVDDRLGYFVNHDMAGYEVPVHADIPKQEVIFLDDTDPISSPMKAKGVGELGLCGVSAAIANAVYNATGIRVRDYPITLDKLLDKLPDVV
UniProt P77218: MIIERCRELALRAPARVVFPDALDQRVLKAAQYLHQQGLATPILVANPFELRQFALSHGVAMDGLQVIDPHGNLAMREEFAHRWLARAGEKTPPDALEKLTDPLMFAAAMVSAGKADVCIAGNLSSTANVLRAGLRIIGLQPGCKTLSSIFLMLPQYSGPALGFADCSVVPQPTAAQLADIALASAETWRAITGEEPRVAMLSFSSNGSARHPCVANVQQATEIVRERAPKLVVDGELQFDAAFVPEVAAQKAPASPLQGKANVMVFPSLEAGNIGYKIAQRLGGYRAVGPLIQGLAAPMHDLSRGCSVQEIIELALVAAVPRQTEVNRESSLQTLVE
UniProt P76909: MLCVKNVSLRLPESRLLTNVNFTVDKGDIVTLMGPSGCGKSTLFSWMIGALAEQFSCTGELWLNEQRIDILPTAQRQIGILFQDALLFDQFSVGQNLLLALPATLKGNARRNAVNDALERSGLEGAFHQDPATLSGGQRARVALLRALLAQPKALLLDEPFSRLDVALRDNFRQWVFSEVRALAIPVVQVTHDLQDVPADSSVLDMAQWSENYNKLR
UniProt P76562: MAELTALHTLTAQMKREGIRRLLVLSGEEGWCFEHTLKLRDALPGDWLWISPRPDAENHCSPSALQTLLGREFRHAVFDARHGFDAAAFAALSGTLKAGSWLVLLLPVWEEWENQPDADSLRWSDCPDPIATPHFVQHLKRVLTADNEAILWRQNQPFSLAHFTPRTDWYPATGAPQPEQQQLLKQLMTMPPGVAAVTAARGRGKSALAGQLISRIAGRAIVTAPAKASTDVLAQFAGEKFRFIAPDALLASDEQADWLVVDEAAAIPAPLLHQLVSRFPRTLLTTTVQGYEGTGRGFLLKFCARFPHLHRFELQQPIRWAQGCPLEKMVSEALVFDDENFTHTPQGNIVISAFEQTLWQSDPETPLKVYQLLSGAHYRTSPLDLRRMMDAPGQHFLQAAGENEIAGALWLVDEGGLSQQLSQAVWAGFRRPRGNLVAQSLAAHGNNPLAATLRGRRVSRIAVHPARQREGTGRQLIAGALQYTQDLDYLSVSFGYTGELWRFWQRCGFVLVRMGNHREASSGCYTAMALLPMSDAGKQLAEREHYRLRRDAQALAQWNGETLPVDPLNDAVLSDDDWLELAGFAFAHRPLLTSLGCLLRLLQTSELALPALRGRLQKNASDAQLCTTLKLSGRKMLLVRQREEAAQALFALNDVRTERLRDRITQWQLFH
UniProt P75937: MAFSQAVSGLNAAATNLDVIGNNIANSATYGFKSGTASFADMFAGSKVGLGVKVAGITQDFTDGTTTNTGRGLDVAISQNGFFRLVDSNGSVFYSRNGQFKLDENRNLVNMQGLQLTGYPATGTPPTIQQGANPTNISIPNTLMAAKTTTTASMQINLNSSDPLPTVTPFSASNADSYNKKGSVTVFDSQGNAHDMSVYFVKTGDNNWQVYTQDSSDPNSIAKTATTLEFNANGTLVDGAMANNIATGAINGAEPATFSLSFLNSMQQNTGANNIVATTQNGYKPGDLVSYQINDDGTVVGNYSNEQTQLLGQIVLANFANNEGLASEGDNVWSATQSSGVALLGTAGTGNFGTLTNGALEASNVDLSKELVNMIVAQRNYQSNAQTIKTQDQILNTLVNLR
UniProt P75913: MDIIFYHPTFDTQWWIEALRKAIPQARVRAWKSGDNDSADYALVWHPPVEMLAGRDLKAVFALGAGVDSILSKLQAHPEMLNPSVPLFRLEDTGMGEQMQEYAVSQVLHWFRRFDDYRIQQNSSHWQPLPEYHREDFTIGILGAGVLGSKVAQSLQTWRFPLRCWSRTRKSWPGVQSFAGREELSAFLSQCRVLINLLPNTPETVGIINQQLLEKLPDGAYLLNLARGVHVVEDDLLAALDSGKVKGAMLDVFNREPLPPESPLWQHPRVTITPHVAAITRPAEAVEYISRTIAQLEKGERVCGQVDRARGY
UniProt P76192: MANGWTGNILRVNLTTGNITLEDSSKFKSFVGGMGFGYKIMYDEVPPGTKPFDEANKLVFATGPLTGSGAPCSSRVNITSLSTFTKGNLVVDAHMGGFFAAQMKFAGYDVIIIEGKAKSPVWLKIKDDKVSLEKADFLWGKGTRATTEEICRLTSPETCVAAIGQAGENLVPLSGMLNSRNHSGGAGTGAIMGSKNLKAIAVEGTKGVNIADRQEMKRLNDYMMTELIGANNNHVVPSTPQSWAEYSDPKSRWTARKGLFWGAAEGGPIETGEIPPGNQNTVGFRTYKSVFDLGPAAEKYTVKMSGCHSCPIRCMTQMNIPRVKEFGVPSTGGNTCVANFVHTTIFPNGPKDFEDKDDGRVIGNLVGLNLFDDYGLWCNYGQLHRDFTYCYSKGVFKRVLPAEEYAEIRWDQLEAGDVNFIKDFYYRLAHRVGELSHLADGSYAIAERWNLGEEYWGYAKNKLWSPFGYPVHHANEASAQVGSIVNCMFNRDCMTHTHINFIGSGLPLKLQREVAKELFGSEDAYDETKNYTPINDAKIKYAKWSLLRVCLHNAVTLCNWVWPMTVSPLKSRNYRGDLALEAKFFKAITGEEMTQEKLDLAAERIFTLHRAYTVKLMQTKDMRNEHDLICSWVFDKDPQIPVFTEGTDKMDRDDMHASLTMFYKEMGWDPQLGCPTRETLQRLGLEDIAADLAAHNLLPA
UniProt P77300: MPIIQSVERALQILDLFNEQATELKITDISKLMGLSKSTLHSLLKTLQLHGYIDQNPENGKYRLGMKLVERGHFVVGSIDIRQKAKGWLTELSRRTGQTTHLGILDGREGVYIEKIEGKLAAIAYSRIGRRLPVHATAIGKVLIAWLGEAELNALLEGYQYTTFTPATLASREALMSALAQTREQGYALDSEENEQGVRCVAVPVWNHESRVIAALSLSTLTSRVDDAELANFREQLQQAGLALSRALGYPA
UniProt P77634: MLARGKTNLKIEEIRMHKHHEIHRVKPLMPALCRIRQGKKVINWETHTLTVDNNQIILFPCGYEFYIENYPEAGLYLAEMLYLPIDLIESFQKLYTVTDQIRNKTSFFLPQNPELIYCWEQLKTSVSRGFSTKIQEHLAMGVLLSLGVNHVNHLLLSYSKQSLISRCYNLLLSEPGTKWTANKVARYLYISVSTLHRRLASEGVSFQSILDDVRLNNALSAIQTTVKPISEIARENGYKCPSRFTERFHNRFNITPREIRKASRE
UniProt P76149: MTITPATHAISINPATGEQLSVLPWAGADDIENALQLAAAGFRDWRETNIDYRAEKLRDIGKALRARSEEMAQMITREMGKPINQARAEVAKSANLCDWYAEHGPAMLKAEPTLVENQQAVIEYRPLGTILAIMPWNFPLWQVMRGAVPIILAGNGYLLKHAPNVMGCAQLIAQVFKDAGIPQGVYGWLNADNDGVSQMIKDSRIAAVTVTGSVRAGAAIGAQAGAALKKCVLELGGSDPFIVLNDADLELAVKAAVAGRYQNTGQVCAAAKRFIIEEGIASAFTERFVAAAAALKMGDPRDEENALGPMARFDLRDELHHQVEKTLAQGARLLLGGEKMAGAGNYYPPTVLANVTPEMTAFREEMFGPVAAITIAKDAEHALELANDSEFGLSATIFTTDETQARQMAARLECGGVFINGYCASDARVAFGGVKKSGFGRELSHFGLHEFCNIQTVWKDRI

The targets below were run with CC1(C)S[C@@H]2[C@H](NC(=O)[C@H](N)c3ccccc3)C(=O)N2[C@H]1C(=O)O [ampicillin] (assay: log2 fold change of tryptic peptide abundance, ligand vs vehicle (limited proteolysis) (log2 ratio); higher = more trypsin-susceptible (destabilized)). Conditions: ligand concentration: 10 uM; sample: E. coli crude lysate.
Work on “UniProt P76550 (peptide sequence: ICDILKGAAMEGQYK, peptide start residue: 7)” yielded a log2 fold change of -0.244. “UniProt P75968 (peptide sequence: KLNKDEAHNVMSNLYYPEVR, peptide start residue: 117)” showed a log2 fold change of 0.0348. With “UniProt P77375 (peptide sequence: VADKCDFCAESR, peptide start residue: 147)” the log2 fold change was 0.323. “UniProt P77272 (peptide sequence: LRLGVHDSSLVDPNIK, peptide start residue: 33)” was tested, and the log2 fold change was -0.762. “UniProt P76085 (peptide sequence: FEHLSPHYQLEVNRR, peptide start residue: 351)” gave a log2 fold change of 0.652. “UniProt P76027 (peptide sequence: VGEQLMEVLMLHK, peptide start residue: 123)” gave a log2 fold change of 0.095. In the case of “UniProt P77445 (peptide sequence: IAAAIGLKVPQETR, peptide start residue: 333)”, the log2 fold change is reported as -0.422. For “UniProt P76542 (peptide sequence: AIDALNMAAGFK, peptide start residue: 95)”, the log2 fold change was 0.244. For “UniProt P77148 (peptide sequence: QRDPFDWAEK, peptide start residue: 323)”, the log2 fold change was 0.403. For “UniProt P77409 (peptide sequence: SMVDGYHRH, peptide start residue: 253)”, the log2 fold change was 0.157. “UniProt P77559 (peptide sequence: YFVAVAEELHFGR, peptide start residue: 10)” gave a log2 fold change of 0.526. “UniProt P75974 (peptide sequence: PDVSITNK, peptide start residue: 80)” gave a log2 fold change of -0.275. “UniProt P76536 (peptide sequence: REVAVIKDGVDAGGSYVFVQR, peptide start residue: 155)” was tested, and the log2 fold change was 0.731. Target “UniProt P77473 (peptide sequence: NVTPHIIEMAK, peptide start residue: 456)” has a log2 fold change of 0.469. Work on “UniProt P77279 (peptide sequence: NIAELSGGEK, peptide start residue: 134)” yielded a log2 fold change of 0.0694. With “UniProt P77626 (peptide sequence: NESSPTVATLWK, peptide start residue: 43)” the log2 fold change was -0.259. “UniProt P77295 (peptide sequence: ITGLSASATSQHLAR, peptide start residue: 47)” showed a log2 fold change of -0.0661. Target “UniProt P76578 (peptide sequence: AQGLDLTIPVDKTWNR, peptide start residue: 805)” has a log2 fold change of -0.46. “UniProt P76063 (peptide sequence: SACCSQNMSVK, peptide start residue: 75)” showed a log2 fold change of 0.513. Work on “UniProt P77489 (peptide sequence: SATLHEATAGGR, peptide start residue: 554)” yielded a log2 fold change of 0.19. Target “UniProt P75966 (peptide sequence: RMTAHVGFPTLR, peptide start residue: 182)” has a log2 fold change of 0.354. “UniProt P77348 (peptide sequence: TLLSAAGYGPQKPLK, peptide start residue: 366)” was tested, and the log2 fold change was -0.27. With “UniProt P77218 (peptide sequence: APASPLQGK, peptide start residue: 253)” the log2 fold change was -0.303. “UniProt P76909 (peptide sequence: SGLEGAFHQDPATLSGGQR, peptide start residue: 121)” showed a log2 fold change of 0.0975. With “UniProt P76562 (peptide sequence: SALAGQLISR, peptide start residue: 206)” the log2 fold change was 0.322. “UniProt P76546 (peptide sequence: HSPFGDDKQ, peptide start residue: 130)” gave a log2 fold change of 0.0974. “UniProt P75937 (peptide sequence: ELVNMIVAQR, peptide start residue: 370)” gave a log2 fold change of -0.0294. Work on “UniProt P77622 (peptide sequence: TTEHVHAINGIDLQIR, peptide start residue: 25)” yielded a log2 fold change of -0.557. For “UniProt P75913 (peptide sequence: TIAQLEKGER, peptide start residue: 292)”, the log2 fold change was 0.154. Work on “UniProt P76192 (peptide sequence: SVFDLGPAAEKYTVK, peptide start residue: 289)” yielded a log2 fold change of -0.344. For “UniProt P76015 (peptide sequence: GDSLDACAELGR, peptide start residue: 167)”, the log2 fold change was -0.145. “UniProt P77529 (peptide sequence: QTDKAILDSEDDAELAHH, peptide start residue: 446)” showed a log2 fold change of -0.341. In the case of “UniProt P77300 (peptide sequence: LAAIAYSR, peptide start residue: 120)”, the log2 fold change is reported as -0.219. For “UniProt P77634 (peptide sequence: ENGYKCPSR, peptide start residue: 235)”, the log2 fold change was 0.327. “UniProt P76149 (peptide sequence: ARSEEMAQMITR, peptide start residue: 66)” showed a log2 fold change of -0.505. “UniProt P77258 (peptide sequence: IFMAPLTR, peptide start residue: 21)” gave a log2 fold change of -0.284.
